Test results from PubChem BioAssay AID2685 (National Center for Advancing Translational Sciences (NCATS), 2010).
The other results are listed elsewhere or left out. Shown are side measurements of this screen, not its main read-out; they come without a call. Compounds called inactive in the main read-out are mostly missing here. Potencies come from curve fits of mixed quality, noted in brackets.

Assay: qHTS Assay for Lipid Storage Modulators in Drosophila S3 Cells;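 for cell number change: cells counted by Cell Tracker Red CMTPX staining in the red channel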
Conditions: BODIPY lipid droplet fluorescence, 18-24 h; for cell number change: measured here: cell count max response, cells fed with added oleic acid
In short: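 Drosophila S3 cells loaded with oleic acid (400 uM, as added) and compounds at several concentrations; lipid droplets imaged by 488-nm laser-scanning cytometry, 500–530 nm intensity and object ratio to cell channel. Percent activity normalized to 20 uM Triacsin C.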

[1] = measured here: cell number channel AC50, cells fed with added oleic acid
[2] = measured here: lipid fluorescence (Fed channel) AC50, cells fed with added oleic acid

Row | Compound | cell number change | AC50 [1] | AC50 [2]
1 | CCOc1ccc(C(=O)N[C@H](C(=O)Nc2ccccc2OC)C(C)C)cc1 | 37.4% | 6.51 µM [rising, full curve, poor fit] | 
2 | Fc1ccccc1OCCn1c(=S)[nH]c2ccccc21 | -25.5% | 0.291 µM [falling, full curve, poor fit] | 
3 | CCC(NC(=O)COC(=O)C1CC2CCCC(C1)C2=O)c1ccc(Br)cc1 (configuration not stated) | -22% |  | 
4 | CCOC(=O)c1cnn(-c2ccccc2)c1-n1cccc1C(=O)C(=O)Nc1ccccc1C(F)(F)F | -5.35% |  | 29.1 µM [falling, single point]
5 | CCCCN(C(=O)c1ccc(-c2ccc(Cl)cc2)o1)c1c(N)n(CC(C)C)c(=O)[nH]c1=O | -54.6% | 13 µM [falling, partial curve] | 
6 | CC(=O)Oc1ccc2c(c1)C(=O)c1ccccc1CO2 | 5.45% | 0.116 µM [falling, full curve, poor fit] | 2.06 µM [falling, partial curve]
7 | O=c1[nH]c2ccc(NC(=S)Nc3ccc(Cl)cc3)cc2[nH]1 | -41.4% | 29.1 µM [falling, single point] | 
8 | CC(=O)N1C=Cc2c(c(C)c3c([nH]c4ccccc43)c2C)C1 | -40.9% |  | 
9 | CC1CN(CN2C(=O)c3ccccc3C2=O)CC(C)O1 (configuration not stated) | -51.6% | 16.4 µM [falling, single point] | 
10 | CCn1c(CNC(=O)C2CCCCC2)cc2cc(C)ccc21 |  |  | 20.6 µM [rising, partial curve]
11 | Cc1cc(OC(=O)c2ccc(C(F)(F)F)cc2)c([N+](=O)[O-])c(=O)[nH]1 | 6.89% |  | 
12 | N#CCc1ccc(NC(=O)/C=C/c2ccc([N+](=O)[O-])o2)cc1 | -113% | 29.1 µM [falling, single point] | 
13 | O=C(Nc1cc2c(cc1Br)OCCCO2)c1cccnc1 | -0.647% |  | 1.46 µM [rising, partial curve, poor fit]
14 | COc1ccccc1C(=O)NCC(=O)NCCCN1CCOCC1 | 16.6% |  | 10.3 µM [rising, single point]
15 | OC(CNC1CCCC1)COc1ccccc1Br (configuration not stated) | -36.6% | 25.9 µM [falling, single point] | 
16 | Cc1nc(SCC(=O)NC(C)(C#N)C2CC2)c2c(-c3cccs3)csc2n1 (configuration not stated) | -18% |  | 29.1 µM [falling, single point]
17 | Cc1cc(NS(=O)(=O)c2ccc(NC(=O)CN3C(=O)NC(C)(c4ccccc4)C3=O)cc2)nc(C)n1 (configuration not stated) | -95.9% | 9.2 µM [falling, single point] | 5.8 µM [falling, single point]
18 | CN(C(=O)COC(=O)CSc1ccc([N+](=O)[O-])cc1)c1ccccc1 | 4.55% |  | 
19 | O=C(Cn1c(=O)c2c(ncn2Cc2ccccc2)n(Cc2ccccc2)c1=O)NC1CC1 | 1.11% | 0.103 µM [falling, full curve, poor fit] | 0.517 µM [falling, single point]
20 | CC1CCN(C(=O)Cn2nnc(-c3ccccc3)n2)CC1 | 10.8% |  | 0.13 µM [rising, full curve, poor fit]

Row | Compound | cell number change | AC50 [1] | AC50 [2]
21 | CCN(Cc1ccccc1)S(=O)(=O)c1ccc(C(=O)N(CCCN(C)C)c2nc3cc4c(cc3s2)OCCO4)cc1 | 34.9% |  | 0.651 µM [falling, single point]
22 | Cc1ccc(-c2cc(C(=O)Nc3ccc(S(=O)(=O)Nc4ncccn4)cc3)[nH]n2)c(O)c1C | 31.7% | 18.4 µM [rising, single point] | 
23 | CCN1CCN(C(=O)c2cc3c(=O)n(C)c4ccccc4c3n2C)CC1 | 37.7% | 29.1 µM [rising, single point] | 
24 | Clc1ccc(Cn2ncc3c(N4CCCCC4)ncnc32)cc1 | -24.4% |  | 6.51 µM [rising, single point]
25 | CC(=O)c1ccc(S(=O)(=O)Nc2cccc(-c3ccc(N4CCOCC4)nn3)c2)cc1 | -19.2% |  | 
26 | CCOc1ccc(C(=O)NCc2ccc3c(c2)OCO3)cc1OCC | 13.5% |  | 
27 | CC(=O)Nc1sc(/C(C#N)=C\c2cccc(Cl)c2)nc1-c1ccc(C)cc1 | 0.569% |  | 6.51 µM [falling, partial curve]
28 | C/C(=N\NC(=O)c1cccc([N+](=O)[O-])c1)c1cccs1 | 26.8% | 1.84 µM [rising, full curve, poor fit] | 
29 | COc1ccc(NS(=O)(=O)c2ccc3oc4ccccc4c3c2)cn1 | -44.2% | 29.1 µM [falling, single point] | 
30 | Cc1ccc(Nc2nc(N)nc(CN3CCN(c4ccccc4F)CC3)n2)cc1 | -27.9% |  | 14.6 µM [falling, partial curve, poor fit]
31 | OCCCNc1c2c(nc3cc(-c4ccc(Cl)cc4)nn13)CCC2 | 6.32% |  | 0.0259 µM [rising, full curve, poor fit]
32 | O=C(NCc1ccccc1F)c1cccc(S(=O)(=O)NCc2ccccc2)c1 | -16.5% |  | 8.2 µM [falling, partial curve, poor fit]
33 | Cc1ccc(NC(=O)COc2ccc3c(c2)OCO3)c(C)c1 | -23.1% |  | 16.4 µM [rising, partial curve, poor fit]
34 | COc1ccccc1N(Cc1ccccc1)S(=O)(=O)c1cccc(C(=O)Nc2ncccc2C)c1 | 104% |  | 
35 | O=C(COC(=O)c1ccc(S(=O)(=O)NCc2ccco2)cc1)NC1CCCCCC1 | -67.3% | 16.4 µM [falling, partial curve, poor fit] | 
36 | O=C(CN1CCN(C(=O)c2ccccc2)CC1)Nc1ncc(Br)cc1Br |  | 2.31 µM [rising, partial curve] | 2.31 µM [rising, partial curve]
37 | Cc1ccc(-c2cc(C(=O)NCc3cnn(C)c3C)c3cc(Br)ccc3n2)cc1 | -27.6% |  | 32.6 µM [falling, single point]
38 | Cc1ccc(NC(=O)c2cc(C(C)(C)C)nn2Cc2ccccc2)cc1 | -46.1% | 18.4 µM [falling, single point] | 20.6 µM [falling, partial curve]
39 | CC1(C)O[C@@H]2[C@H](O1)[C@@H](COS(=O)(=O)O)O[C@H]2n1cnc2c(N)ncnc21 | 4.36% |  | 
40 | NC(=O)CSc1nnc(COc2ccc3ccccc3c2)o1 | -12.4% |  | 0.731 µM [falling, full curve]

Of the compounds above, 2 have a CF3 group.
Row | Compound | cell number change | AC50 [1] | AC50 [2]
4 | CCOC(=O)c1cnn(-c2ccccc2)c1-n1cccc1C(=O)C(=O)Nc1ccccc1C(F)(F)F | -5.35% |  | 29.1 µM [falling, single point]
11 | Cc1cc(OC(=O)c2ccc(C(F)(F)F)cc2)c([N+](=O)[O-])c(=O)[nH]1 | 6.89% |  | 

Following part:

Row | Compound | cell number change | AC50 [1] | AC50 [2]
41 | CCN(CC(=O)NCc1cccs1)CC(=O)Nc1c(Cl)ccc(C)c1Cl | 3.19% | 6.51 µM [falling, single point] | 7.31 µM [falling, partial curve, poor fit]
42 | NC(=S)N/N=C/c1ccc(C23CC4CC(CC(C4)C2)C3)cc1 | -41.4% | 10.3 µM [falling, partial curve] | 
43 | O=C(COC(=O)c1cccc(Cl)c1)Nc1ccc2[nH]c(=O)[nH]c2c1 | -17.6% |  | 4.61 µM [falling, full curve]
44 | CCCCCCCCCCCCCCCC[N+](C)(C)CCN(Cc1ccc(OC)cc1)c1ncccn1 |  | 6.51 µM [falling, single point] | 
45 | CCCCOc1ccc(C(=O)Oc2cccnc2)cc1 | -7.67% |  | 1.46 µM [falling, partial curve]
46 | O=C(CCc1c[nH]c2ccccc12)NCC(=O)Nc1ccc(F)c(F)c1F | -1.08% | 6.51 µM [rising, single point] | 
47 | CC1CCCN(C(=O)CSc2nnc(-c3ccc(S(=O)(=O)N4CCOCC4)cc3)n2C)C1 (configuration not stated) | -11.2% |  | 
48 | N#Cc1c(NC(=O)CSc2n[nH]c(N)n2)oc(-c2ccccc2)c1-c1ccccc1 |  |  | 0.13 µM [rising, full curve, poor fit]
49 | CCn1c(/C=C/c2cc(Br)ccc2O)nc2ccccc2c1=O | -35.7% | 5.17 µM [falling, partial curve] | 29.1 µM [falling, single point]
50 | CCOc1ccc(-c2cc(C(=O)NCCCN3CCOCC3)c3ccccc3n2)cc1 | 6.93% |  | 29.1 µM [rising, single point]
51 | Cn1c(N)c(C(=O)COC(=O)CCc2ccccc2)c(=O)n(C)c1=O |  |  | 6.51 µM [falling, single point]
52 | O=C(COc1ccc(-n2cnnn2)cc1)Nc1cccc(Cl)c1Cl | -10.3% |  | 
53 | COc1ccc2nc(SCC(=O)NN)cc(C)c2c1 | 36.1% |  | 
54 | Cn1cnnc1SCc1ccc(C(=O)N=Nc2c(O)n(Cc3ccc(Cl)cc3)c3ccccc23)cc1 | -47.3% | 29.1 µM [falling, single point] | 2.59 µM [rising, partial curve]
55 | COc1cc2[nH]c(=O)c(C(=O)NCc3ccccc3Cl)c(O)c2cc1OC |  |  | 1.03 µM [falling, full curve, poor fit]
56 | O=C(NC1CC1)C1CCN(c2ncnc3c2sc2cccc(F)c23)CC1 | 110% | 0.651 µM [rising, full curve] | 1.16 µM [rising, partial curve]
57 | O=C1CCCN1CCC1CCN(C(=S)Nc2ccc(F)cc2)CC1 | -69.7% | 23.1 µM [falling, single point] | 23.1 µM [falling, single point]
58 | Cc1cc(C)nc(Nc2n[nH]c(-c3ccccc3N)n2)n1 | -12.4% | 0.00517 µM [falling, full curve, poor fit] | 0.291 µM [falling, full curve, poor fit]
59 | CC(=O)c1ccc(NS(=O)(=O)c2ccc3ccccc3c2)cc1 | 10% |  | 8.2 µM [falling, single point]
